Patent US20160367685A1 (PURDUE RESEARCH FOUNDATION, priority 2013, published 2016)

How the values were obtained:
[1] = general procedure: Fmoc solid-phase peptide synthesis; H-L-Cys(Trt)-(2-ClTrt) resin; conditions: whole synthesis, scale 0.14 mmol
[2] = general procedure: Fmoc solid-phase peptide synthesis; H-Cys(Trt)-(2-ClTrt) resin; conditions: conjugation step

Substance	isolated yield ([1]; overall) [% overall yield]	isolated mass [1] [mg]	conjugation yield [2] [%]
DUPA-Aoc-Phe-Phe-Dap-Asp-Cys	58	172	
(12R,15S,18S,22S,25S,39S,43S)-18-Amino-22,25-dibenzyl-15-(carboxymethyl)-1-(9-methoxy-3-nitro-5,11-dioxo-5,11-dihydro-6H-indeno[1,2-c]isoquinolin-6-yl)-5,14,17,21,24,27,36,41-octaoxo-6-oxa-9,10-dithia-4,13,16,20,23,26,35,40,42-nonaaza			29.8
